{"source": "patent US4490370A", "about": "“Naphthylglycyl cephalosporin derivatives” (priority 1983, dated 1984)", "assay_type_in_all_cases": "biochemical", "conditions_in_all_cases": "lower numbers mean greater stability", "key": {"[1]": {"tested_on": "β-lactamase (organism 1082E)", "test": "Stability to β-lactamases, 1082E", "description": "(§1) The compounds of the invention also have good stability to β-lactamases."}, "β-lactamase (TEM)": {"tested_on": "β-lactamase (TEM)", "test": "Stability to β-lactamases, TEM", "description": "as §1"}, "[2]": {"tested_on": "β-lactamase (organism PS185)", "test": "Stability to β-lactamases, PS185", "description": "as §1"}, "[3]": {"tested_on": "β-lactamase (organism 1313G)", "test": "Stability to β-lactamases, 1313G", "description": "as §1"}, "[4]": {"tested_on": "β-lactamase (organism 265A)", "test": "Stability to β-lactamases, 265A", "description": "as §1"}}, "data": [{"smiles": "CC1=C(C(=O)O)N2C(=O)[C@@H](NC(=O)[C@H](N)c3ccccc3)[C@H]2SC1", "note": "[Cephalexin, reference compound]", "values": [{"measurement": "Stability to β-lactamases", "setting": "[1]", "value": 6}, {"measurement": "Stability to β-lactamases", "setting": "β-lactamase (TEM)", "value": 1}, {"measurement": "Stability to β-lactamases", "setting": "[2]", "value": 37}, {"measurement": "Stability to β-lactamases", "setting": "[3]", "value": 254}, {"measurement": "Stability to β-lactamases", "setting": "[4]", "value": 72}]}]}
